Here are results for 1 molecule from article PMC8647176, “Helical filament structure of the DREP3 CIDE domain reveals a unified mechanism of CIDE-domain assembly” (Acta Crystallographica. Section D, Structural Biology, 2021).

Experiment [1] addresses DREP3 CIDE domain D167R mutant (Drosophila melanogaster) (UniProt Q0E9B7). Put plainly: SEC-MALS; Superdex 200 10/300, SEC buffer, 0.4 ml min^-1, 25°C, protein at 10 mg ml^-1; wild type in 50 mM, 500 mM and 2 M NaCl; both purified.
For experiment [2] the target is unchanged. Put plainly: SEC; Superdex 200 Increase 10/300 GL, 20 mM Tris-HCl pH 7.9, 500 mM NaCl; also series at 1, 5 and 15 mg ml^-1 protein and at four NaCl concentrations; both purified. For orientation: Size exclusion chromatography separates by hydrodynamic size, large species first.

Results are given in words; binding and its absence hold for the method and conditions named.

B1: DREP3 CIDE domain D167R mutant (domain or fragment, UniProt Q0E9B7 112-195)
chain: FAQLDNSKPFKIKDITRNIRKAVVATTLSELRTKVSLKFERAQPAIHLDCDGTEVRDEEYFSTLEPNAELIAVFPGEQWRDPSD
B1: the binding entry is listed as “no binding (tested: 10 mg ml^-1)” in experiment [1] and “no binding” in experiment [2].
